In PMC9472820 one finds binding data, which are given here for two substances.

Sequences of proteins named here, by UniProt entry; tags and fusion partners are left off. Residues count along the entry.
UniProt P35869, residues 11-848: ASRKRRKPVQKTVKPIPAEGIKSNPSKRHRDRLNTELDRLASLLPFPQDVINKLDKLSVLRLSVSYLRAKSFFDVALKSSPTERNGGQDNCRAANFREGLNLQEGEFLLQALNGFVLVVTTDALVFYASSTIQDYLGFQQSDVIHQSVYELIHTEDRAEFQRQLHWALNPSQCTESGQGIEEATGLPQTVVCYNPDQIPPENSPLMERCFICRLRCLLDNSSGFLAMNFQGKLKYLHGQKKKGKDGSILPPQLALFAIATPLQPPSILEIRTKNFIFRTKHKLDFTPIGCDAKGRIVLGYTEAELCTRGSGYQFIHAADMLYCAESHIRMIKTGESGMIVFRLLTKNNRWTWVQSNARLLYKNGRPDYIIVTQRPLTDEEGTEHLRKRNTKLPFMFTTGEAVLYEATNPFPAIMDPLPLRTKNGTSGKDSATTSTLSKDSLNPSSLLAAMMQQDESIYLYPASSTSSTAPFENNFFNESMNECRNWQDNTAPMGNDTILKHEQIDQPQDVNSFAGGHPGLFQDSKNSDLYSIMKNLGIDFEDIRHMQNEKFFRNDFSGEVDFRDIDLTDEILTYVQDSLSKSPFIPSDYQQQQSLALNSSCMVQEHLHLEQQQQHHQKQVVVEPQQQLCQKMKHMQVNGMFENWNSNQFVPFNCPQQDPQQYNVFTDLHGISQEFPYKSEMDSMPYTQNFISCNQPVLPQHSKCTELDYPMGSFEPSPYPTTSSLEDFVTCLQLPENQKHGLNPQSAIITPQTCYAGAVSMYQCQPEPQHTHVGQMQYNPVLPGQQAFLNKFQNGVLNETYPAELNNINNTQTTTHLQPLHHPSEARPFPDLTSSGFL
UniProt P42224: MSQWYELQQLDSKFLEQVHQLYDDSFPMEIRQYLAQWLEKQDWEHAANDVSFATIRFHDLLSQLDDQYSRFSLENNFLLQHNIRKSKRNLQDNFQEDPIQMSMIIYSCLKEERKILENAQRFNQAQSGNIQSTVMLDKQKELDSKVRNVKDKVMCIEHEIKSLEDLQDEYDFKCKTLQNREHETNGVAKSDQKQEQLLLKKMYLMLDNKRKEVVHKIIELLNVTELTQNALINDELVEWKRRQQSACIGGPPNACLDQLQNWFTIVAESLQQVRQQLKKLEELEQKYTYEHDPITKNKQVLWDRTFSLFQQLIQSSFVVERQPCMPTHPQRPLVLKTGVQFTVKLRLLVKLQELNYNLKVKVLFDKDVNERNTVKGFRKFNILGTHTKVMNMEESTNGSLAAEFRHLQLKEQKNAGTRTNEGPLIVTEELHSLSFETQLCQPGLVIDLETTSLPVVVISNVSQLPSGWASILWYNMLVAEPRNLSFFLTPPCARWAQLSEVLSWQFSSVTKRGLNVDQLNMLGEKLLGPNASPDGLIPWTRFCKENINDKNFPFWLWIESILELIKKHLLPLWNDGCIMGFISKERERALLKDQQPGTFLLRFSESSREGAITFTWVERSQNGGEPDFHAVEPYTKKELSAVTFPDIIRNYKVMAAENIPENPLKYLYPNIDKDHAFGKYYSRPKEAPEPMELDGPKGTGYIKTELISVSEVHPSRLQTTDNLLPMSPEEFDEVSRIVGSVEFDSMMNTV

This assay has as its target Aryl hydrocarbon receptor (human (endogenous in HPAF-II)) (UniProt P35869). The assay can be described thus: co-IP; HPAF-II cells cultured without and with increasing concentrations of carbidopa; whole cell lysates; immunoprecipitation with anti-AhR or anti-STAT1 antibody, rabbit IgG isotype control; SDS-PAGE and Western blotting. Background: In western blotting, separated proteins are transferred to a membrane and probed.

Results are given in words; binding and its absence hold for the method and conditions named. Binding seen in cells or lysates may run through a third protein. Some binding calls cover weakened binding; strength is not graded here.

For “Signal transducer and activator of transcription 1, total form (from UniProt P42224 1-750)”, the binding result is recorded as “binds”.

On to “Phospho-STAT1 (from UniProt P42224 1-750)”, for which the binding entry is reported as “binds”.
